# In US20080124407A1, “INHIBITING CYP3A4 INDUCTION” (UNIVERSITY OF WASHINGTON, priority 2006, published 2008):
# Sequences of proteins named here, by UniProt entry; tags and fusion partners are left off. A change or cut given only in a name is not applied to a line headed by its entry.
# UniProt P04386: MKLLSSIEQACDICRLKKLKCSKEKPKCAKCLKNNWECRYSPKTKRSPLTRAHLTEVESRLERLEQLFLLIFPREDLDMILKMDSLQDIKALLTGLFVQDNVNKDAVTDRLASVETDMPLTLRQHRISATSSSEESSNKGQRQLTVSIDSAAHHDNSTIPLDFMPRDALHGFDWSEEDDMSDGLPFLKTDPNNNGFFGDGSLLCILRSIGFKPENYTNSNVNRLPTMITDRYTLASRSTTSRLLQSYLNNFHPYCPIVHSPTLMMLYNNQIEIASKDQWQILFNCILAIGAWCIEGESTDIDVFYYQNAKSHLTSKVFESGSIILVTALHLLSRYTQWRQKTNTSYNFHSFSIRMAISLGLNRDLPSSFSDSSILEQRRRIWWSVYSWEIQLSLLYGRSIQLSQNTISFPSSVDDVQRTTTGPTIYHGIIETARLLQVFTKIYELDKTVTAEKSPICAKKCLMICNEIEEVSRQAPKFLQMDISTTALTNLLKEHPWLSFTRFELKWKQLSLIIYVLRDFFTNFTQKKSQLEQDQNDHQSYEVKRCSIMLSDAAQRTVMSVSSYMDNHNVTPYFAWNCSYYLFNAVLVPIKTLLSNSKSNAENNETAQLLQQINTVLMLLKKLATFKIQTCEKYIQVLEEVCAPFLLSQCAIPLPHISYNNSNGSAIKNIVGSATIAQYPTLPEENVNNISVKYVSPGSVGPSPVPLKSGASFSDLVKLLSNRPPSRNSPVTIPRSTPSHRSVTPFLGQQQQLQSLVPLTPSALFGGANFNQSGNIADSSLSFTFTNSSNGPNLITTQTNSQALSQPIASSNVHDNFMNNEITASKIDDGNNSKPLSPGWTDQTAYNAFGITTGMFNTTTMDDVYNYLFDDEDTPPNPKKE
# No constants are given. Whether binding was seen depends on the method and setting. Some entries that bind do so weakly or less than the wild type.
# Tests used:
# VP16-SXR (human) [1] = molecular target: T1, VP16-SXR (human) (UniProt O75469); test: mammalian two-hybrid in HepG2 cells (GAL4 reporter, VP16-SXR, GAL-PBP), with 10 µM rifampicin
# T1 sequence: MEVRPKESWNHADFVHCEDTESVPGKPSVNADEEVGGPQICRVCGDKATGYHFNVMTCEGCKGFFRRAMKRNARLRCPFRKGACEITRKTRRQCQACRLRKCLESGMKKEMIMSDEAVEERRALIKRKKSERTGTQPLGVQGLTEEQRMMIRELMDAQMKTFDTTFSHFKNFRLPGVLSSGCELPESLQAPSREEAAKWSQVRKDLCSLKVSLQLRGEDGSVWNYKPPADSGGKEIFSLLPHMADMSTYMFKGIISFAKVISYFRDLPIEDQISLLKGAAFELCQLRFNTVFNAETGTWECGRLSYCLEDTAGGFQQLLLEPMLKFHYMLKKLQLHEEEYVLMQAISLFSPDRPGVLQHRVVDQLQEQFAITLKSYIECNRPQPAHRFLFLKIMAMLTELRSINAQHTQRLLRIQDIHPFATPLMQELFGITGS
# VP16-SXR (human) [2] = molecular target: T1, VP16-SXR (human); test: mammalian two-hybrid in HepG2 cells (GAL4 reporter, VP16-SXR, GAL-SRC1), with 10 µM rifampicin
Substance,binding (VP16-SXR (human) [1]),binding (VP16-SXR (human) [2])
GAL4 DNA-binding domain linked to the receptor interaction domains of peroxisome proliferator-activated receptor-binding protein (GAL-PBP) (from UniProt P04386 1-147; Q15648 560-700),binds,–
GAL4 DNA-binding domain linked to the receptor interaction domains of steroid receptor coactivator-1 (GAL-SRC1) (from UniProt P04386 1-147; Q15788 595-780),–,binds
